Data on 60 molecules can be found in PubChem BioAssay AID2685 (National Center for Advancing Translational Sciences (NCATS), 2010).

A short description of this assay: qHTS Assay for Lipid Storage Modulators in Drosophila S3 Cells.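 For cell number change: cells counted by Cell Tracker Red CMTPX staining in the red channel.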 To be noted: BODIPY lipid droplet fluorescence, 18-24 h; for cell number change: measured here: cell count max response, cells fed with added oleic acid. The procedure, abridged:
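Laser-scanning cytometry quantifies lipid droplet accumulation (500–530 nm total intensity; droplet/cell object ratio) in oleic acid-fed (400 uM added) Drosophila S3 cells treated with a concentration series. 20 uM Triacsin C defined 100% inhibition.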
(In general: In qHTS, concentration-response curves come from the screen itself.)

[1] abbreviates: measured here: lipid fluorescence (Fed channel) AC50, cells fed with added oleic acid.
[2] abbreviates: measured here: cell number channel AC50, cells fed with added oleic acid.

Where “and” joins values, the source holds several entries; their conditions need not be identical. Equal values may be shown once. The list shows a part of the results. Further columns of the screen follow, without active or inactive calls. Compounds called inactive in the main read-out are mostly missing here. Words in brackets tell the shape of the fitted curve; partial curves, single points and poor fits give uncertain potencies.

The term AC50 denotes the midpoint of the concentration-response curve, whichever way the signal moves. A high value points to weaker potency.

For the molecule `Cc1ccccc1C(=O)N=c1ccn(-c2nc3ccccc3nc2NS(=O)(=O)c2ccc(F)cc2)cc1`, the cell number change amounted to 15.3%. Also, the AC50 under setting [1] is 0.731 µM [rising, single point].

In the case of `O=C(O)c1ccc2c(c1)S(=O)(=O)N=C1CCCCCN12`, under setting [1], the AC50 was 0.116 µM [falling, full curve, poor fit].

On to `CNC(=O)C1CCN(S(=O)(=O)c2c(C)noc2/C=C/N(C)C)CC1`, for which the cell number change was determined as 33.2%. Besides, the AC50 under setting [2] was 7.31 µM [rising, partial curve, poor fit]. Besides, under setting [1], the half-maximal activity concentration (AC50) was 0.58 µM [falling, single point].

`CCN(c1ccccc1)S(=O)(=O)c1ccc(Oc2ccc(-n3ccnc3)cc2)nc1`: the cell number change is 28.5%. Further, the AC50 under setting [1] was 4.61 µM [rising, full curve, poor fit].

For the molecule `CCC(C)NC(=O)c1cc(-c2ccccc2O)on1` (stereo not drawn), the cell number change came to 30.5%. Further, under setting [2], the AC50 was 23.1 µM [rising, single point]. Further, the AC50 under setting [1] is 29.1 µM [rising, single point].

Consider `COc1ccccc1Nc1nc(NCCO)c2ccccc2n1`, for which the cell number change stood at 62.8%. For the same molecule, the AC50 under setting [2] was 1.64 µM [rising, full curve]. For the same molecule, under setting [1], the AC50 is 5.17 µM [rising, single point].

Consider `CCOC(=O)c1ccc(NC(=S)N(CCN(C)C)C(C)c2ccncc2)cc1` (stereo not drawn), for which the cell number change stood at 16.3%.

`COc1ccc(S(=O)(=O)N2CCCCCC2)cc1NC(=O)Cc1n[nH]c(=O)c2ccccc12`: under setting [2], the AC50 is 6.51 µM [rising, single point].

For the molecule `COC(=O)c1cc(NC(=O)CN(c2ccc3c(c2)OCO3)S(C)(=O)=O)ccc1Cl`, the cell number change came out at 40%. Also, under setting [2], the AC50 was 25.9 µM [rising, single point]. Also, the AC50 under setting [1] was 2.06 µM [rising, partial curve].

Take `O=C(NC12CC3CC(CC(C3)C1)C2)N(Cc1ccccc1)Cc1ccncc1`: the cell number change is 126%. Also, the AC50 under setting [2] is 23.1 µM [rising, partial curve, poor fit]. For the same molecule, the AC50 under setting [1] is 18.4 µM [rising, partial curve].

For `CNC(=O)COC(=O)c1cc2c(C)nn(-c3ccc(F)cc3)c2s1`, the cell number change was found to be 18.1%. Also, the AC50 under setting [1] was 0.731 µM [rising, full curve].

Consider `CC(C)n1c(/N=C/c2c[nH]c3ccccc23)nc2ccccc21`, for which the cell number change is -36.4%. For the same molecule, the AC50 under setting [2] is 0.058 µM [falling, full curve, poor fit]. Under setting [1], the AC50 is 29.1 µM [falling, partial curve, poor fit].

For `CCOC(=O)c1cc2c(ccn2C)n1CC(=O)N1C(C)CCCC1C` (stereo not drawn), the cell number change was -62.1%. For the same molecule, the AC50 under setting [2] was 6.51 µM [falling, full curve]. Besides, the AC50 under setting [1] is 6.51 µM [falling, full curve].

With `COc1ccc(CN2CCn3ncc(C(=O)Nc4cccc(C)c4)c3C2=O)cc1`, the cell number change came out at 1.98%. For the same molecule, the AC50 under setting [1] was 0.731 µM [rising, full curve].

In the case of `CCOc1ccc(CCNC(=O)c2nnn(CC(=O)Nc3ccc(OC)c(OC)c3)c2N)cc1OCC`, the cell number change was determined as 20.2%.

For `CC(NC(=O)c1cc(F)c(F)cc1Cl)C1CC2CCC1C2` (stereo not drawn), the cell number change is 3.15%. Also, the AC50 under setting [1] is 11.6 µM [falling, single point].

`Cc1oc(-c2cccs2)nc1CS(=O)CC(=O)NC1CCCCCC1` (stereo not drawn): the cell number change was -4.17%. Besides, the AC50 under setting [1] was 0.00461 µM [rising, full curve, poor fit].

Regarding `CC(=O)NS(=O)(=O)c1ccc(NC(=O)/C=C/c2ccco2)cc1`, the cell number change is -38%. Besides, the AC50 under setting [2] is 0.082 µM [falling, full curve, poor fit]. The AC50 under setting [1] was 0.082 µM [falling, full curve].

Turning to `CCN1C(c2ccccc2)=C(c2ccccc2)S/C1=C/C=C1\SC(=S)N(C)C1=O`, the cell number change is -45.2%. For the same molecule, the AC50 under setting [2] was 2.31 µM [falling, full curve]. Further, the AC50 under setting [1] was 1.16 µM [falling, full curve].

For `CCOC(=O)Nc1ccc2c(CN(C)Cc3ccc(F)cc3)cc(=O)oc2c1`, the cell number change was determined as 20.7%. The AC50 under setting [1] was 29.1 µM [falling, single point].

In the case of `CCOC(=O)C1(O)CSc2nc3sc(C(=O)O)c(C)c3c(=O)n21` (stereo not drawn), the cell number change was -9.99%. Also, the AC50 under setting [1] is 25.9 µM [falling, partial curve, poor fit].

Regarding `O=[N+]([O-])c1cccnc1N1CCC(c2cc(-c3cccc(C(F)(F)F)c3)n[nH]2)CC1`, the cell number change is -92.8%. Further, under setting [2], the AC50 was 29.1 µM [falling, single point].

In the case of `CCc1ccc2[nH]c(C(=O)Nc3ccc(Br)c(C)n3)cc2c1`, the cell number change was determined as 25%.

For `Cc1ccc(Nc2nc(N)nc(CN3CCN(c4ccccc4)CC3)n2)cc1Cl`, the cell number change is -12.2%.

Regarding `COc1cc([N+](=O)[O-])ccc1NC(=O)C[n+]1ccccc1C`, the cell number change was determined as 17.1%. Moreover, under setting [1], the AC50 is 29.1 µM [rising, single point].

Regarding `CCNC(=O)Nc1cc(S(=O)(=O)Nc2ccc(OC)cc2)ccc1N1CCOCC1`, the cell number change is -46.1%. Also, the AC50 under setting [2] was 10.3 µM [falling, partial curve, poor fit]. Under setting [1], the AC50 is 5.17 µM [falling, full curve].

`O=C(CSc1nnc(-c2cccc(S(=O)(=O)N3CCCCC3)c2)o1)NCCC1=CCCCC1`: the cell number change amounted to 56%. In addition, under setting [2], the AC50 is 5.8 µM [rising, full curve].

Take `CCOC(=O)N1CCN(CC(O)COc2ccccc2C(C)(C)C)CC1` (stereo not drawn): the cell number change was -7.91%. For the same molecule, under setting [1], the AC50 was 0.58 µM [falling, full curve, poor fit].

Consider `COc1ccccc1CC(=O)NCc1ccc2c(c1)OCO2`, for which the AC50 is 0.82 µM [rising, partial curve] under setting [2] and 6.51 µM [rising, single point] under setting [1].

In the case of `COCCn1c(=NC(C)=O)sc2cc([N+](=O)[O-])ccc21`, the cell number change turned out to be 24%. For the same molecule, the AC50 under setting [1] is 10.3 µM [rising, partial curve, poor fit].

As for `CC(C)CCC[C@@H](C)[C@H]1CC[C@H]2[C@@H]3C(=O)C=C4C[C@@H](O)CC[C@]4(C)[C@H]3CC[C@]12C`, the cell number change is -27.2%.

`Cc1nn(C)cc1CNCc1c(C(=O)N2CCCCC2)nc2c(C)cccn12`: the cell number change came out at 4.57%. Also, the AC50 under setting [2] is 0.731 µM [falling, single point]. The half-maximal activity concentration (AC50) under setting [1] was 0.731 µM [falling, single point].

For `COc1cc(OC)cc(C(=O)N2CCN(C(=O)c3cccnc3)CC2)c1`, the cell number change was found to be 11.8%. Under setting [1], the AC50 was 6.51 µM [rising, single point].

As for `COc1ccccc1/C=C/C(=O)OCC(=O)NNC(=O)c1ccccc1`, the cell number change came out at 27%. For the same molecule, the AC50 under setting [1] was 1.64 µM [rising, partial curve].

`O=C(CCC1CCCC1)Nc1ccc([N+](=O)[O-])cn1`: the cell number change was -7.57%.

Regarding `O=C(OCc1ccc(Cl)cc1)c1cnccn1`, the AC50 under setting [1] was 3.66 µM [falling, full curve].

As for `CC(=O)Nc1ccc(S(=O)(=O)NC(C)c2ccncc2)cc1` (stereo not drawn), the cell number change is -14.9%. For the same molecule, under setting [1], the AC50 is 29.1 µM [falling, single point].

For `Cc1ccc(S(=O)(=O)NC(CC(C)C)C(=O)N2CCC(C)CC2)cc1` (stereo not drawn), the cell number change was 19.3%.

In the case of `O=C(CN1CCC(Cc2ccccc2)CC1)NC(=O)NCc1ccco1`, the cell number change was -15.3%.

With `Cn1c(SCc2nc3ccccc3c(=O)[nH]2)nc2ccccc21`, under setting [1], the AC50 was 0.116 µM [falling, single point].

On to `NC(=O)C1CCN(C(=O)c2cnn(-c3ccccc3)c2NC(=O)c2cccc(F)c2)CC1`, for which the cell number change was -2.38%. Also, the AC50 under setting [1] is 0.146 µM [falling, full curve, poor fit].

In the case of `CC(=O)N(c1ccccc1)C(C)c1nc(C#N)c(C#N)nc1C` (stereo not drawn), the cell number change is -22.1%. Besides, the AC50 under setting [1] was 0.231 µM [falling, full curve, poor fit].

On to `OCCN(CCO)CC(O)COc1ccc(Br)cc1` (stereo not drawn), for which the cell number change was -30.2% and -5.12%. Further, the AC50 under setting [2] is 1.46 µM [rising, partial curve].

Consider `COC(=O)c1sccc1NC(=O)c1csc(C)c1`, for which the AC50 under setting [1] is 6.51 µM [rising, single point].

In the case of `CC(/C=N/N1C(=O)CSC1=S)=C\c1ccccc1`, the cell number change is 74.8%. Besides, the AC50 under setting [2] was 23.1 µM [rising, single point]. Moreover, the AC50 under setting [1] is 6.51 µM [falling, single point].

Turning to `COc1ccccc1OCCn1c(=O)n(C)c2ccccc21`, the cell number change is -6.77%.

Consider `CC(=O)c1cccc(N(CC(=O)Nc2ccc(S(=O)(=O)N3CCOCC3)cc2)S(C)(=O)=O)c1`, for which the cell number change is -6.74%.

Consider `COCCNC(=O)C(c1ccc(Cl)cc1)N(Cc1ccco1)C(=O)CCC(=O)Nc1ccccn1` (stereo not drawn), for which the cell number change was found to be 4.17%.

Take `Cc1ccn2c(=O)nc(SCC(=O)NCc3ccc4c(c3)OCO4)nc2c1`: the AC50 under setting [2] was 5.17 µM [rising, single point].

For `CC(=O)CC(=O)NC1C2CC3CC(C2)CC1C3` (stereo not drawn), the cell number change was -35.7%. The AC50 under setting [2] was 0.116 µM [falling, full curve]. Further, under setting [1], the AC50 is 0.411 µM [falling, single point].

As for `Cc1cccc(C)c1NC(=O)CN1CCN(CC(=O)c2cc(C)n(C3CC3)c2C)CC1`, the cell number change amounted to 34.6%. Under setting [1], the AC50 was 6.51 µM [falling, full curve, poor fit].

On to `CCOC(=O)c1cccc(Nc2ncnc3ccc(C)cc23)c1`, for which the cell number change was found to be 89.4%.

With `CC(C)CC(=O)Nc1nnc(S(=O)(=O)Nc2ccccc2)s1`, the AC50 under setting [1] was 6.51 µM [falling, single point].

Regarding `COc1cccc(C2CC(c3cccs3)=NN2S(C)(=O)=O)c1` (stereo not drawn), the cell number change worked out at 23.5%. Moreover, the concentration at half-maximal activity (AC50) under setting [2] is 0.058 µM [rising, full curve, poor fit].

With `Cc1c(OCc2ccc(C(=O)O)cc2)ccc2c(-c3ccccc3)cc(=O)oc12`, the cell number change is -13.3%. Also, the AC50 under setting [1] is 1.46 µM [falling, single point].

As to `C[C@H](NC(=O)c1ccccc1Cl)C(=O)OC(C(=O)Nc1cc(C(F)(F)F)ccc1Cl)c1ccccc1` (stereo partly drawn), the cell number change worked out at 87.3%. The AC50 under setting [2] was 18.4 µM [rising, single point].

With `CC(C)Cn1cnc2c(c(-c3ccccc3)c(-c3ccccc3)n2Cc2ccco2)c1=N`, the cell number change is -18.3%. The AC50 under setting [1] was 3.26 µM [rising, single point].

On to `O=C(O)CCSC1CC(=O)N(c2ccccc2)C1=O` (stereo not drawn), for which the cell number change was -12.7%.

Regarding `Cn1c(Cc2ccccc2)nnc1SCC(=O)NC1CC1`, the cell number change worked out at 4.05%.

As to `C/C(=N\N=C(c1ccccc1)c1ccccc1)c1cccs1`, the cell number change amounted to 160%. The AC50 under setting [2] was 29.1 µM [rising, single point]. Moreover, the AC50 under setting [1] is 23.1 µM [rising, single point].
